This note sets out measurements from PMC4039532.

Protein sequences, listed by entry. Tags and fused reporters are not part of them.
UniProt P31652: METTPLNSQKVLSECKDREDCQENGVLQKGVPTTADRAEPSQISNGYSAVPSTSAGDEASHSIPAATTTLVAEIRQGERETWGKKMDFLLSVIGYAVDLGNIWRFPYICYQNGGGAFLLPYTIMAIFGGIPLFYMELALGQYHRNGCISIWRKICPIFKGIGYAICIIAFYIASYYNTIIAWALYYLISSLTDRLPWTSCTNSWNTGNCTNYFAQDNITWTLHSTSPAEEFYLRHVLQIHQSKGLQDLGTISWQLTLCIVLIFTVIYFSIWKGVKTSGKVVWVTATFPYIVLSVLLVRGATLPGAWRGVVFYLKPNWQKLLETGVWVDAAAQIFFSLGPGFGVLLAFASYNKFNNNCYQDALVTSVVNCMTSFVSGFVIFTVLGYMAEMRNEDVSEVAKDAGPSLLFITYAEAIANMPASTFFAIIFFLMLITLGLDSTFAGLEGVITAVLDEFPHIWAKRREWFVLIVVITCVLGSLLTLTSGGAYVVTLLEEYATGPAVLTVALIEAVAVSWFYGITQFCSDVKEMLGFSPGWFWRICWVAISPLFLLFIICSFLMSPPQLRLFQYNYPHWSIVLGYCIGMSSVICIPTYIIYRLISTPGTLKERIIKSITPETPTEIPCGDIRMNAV
UniProt P60881: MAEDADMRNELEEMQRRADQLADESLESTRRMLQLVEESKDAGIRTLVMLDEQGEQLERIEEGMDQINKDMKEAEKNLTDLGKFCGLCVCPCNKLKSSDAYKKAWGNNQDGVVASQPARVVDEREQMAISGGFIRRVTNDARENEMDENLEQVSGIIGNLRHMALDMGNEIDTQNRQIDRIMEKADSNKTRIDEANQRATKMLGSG
UniProt P63045: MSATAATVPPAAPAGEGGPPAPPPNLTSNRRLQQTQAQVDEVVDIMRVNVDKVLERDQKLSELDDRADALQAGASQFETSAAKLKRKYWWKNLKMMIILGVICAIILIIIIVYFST
UniProt Q63666: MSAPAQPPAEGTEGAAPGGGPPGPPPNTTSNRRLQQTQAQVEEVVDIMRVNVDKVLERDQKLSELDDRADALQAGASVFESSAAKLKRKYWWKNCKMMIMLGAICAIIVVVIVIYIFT
UniProt P63025: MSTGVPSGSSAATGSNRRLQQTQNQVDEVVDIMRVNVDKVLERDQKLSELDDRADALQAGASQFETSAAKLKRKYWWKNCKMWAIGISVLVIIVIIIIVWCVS

The target of experiment [1] is serotonin transporter (SERT), rat, in pcDNA3 (rat) (UniProt P31652). Put plainly: co-IP; transfected HEK-293 MSR cells lysed in PBS with 0.5% digitonin; precipitated with anti-SERT (C-20 or N_SERT) or control IgG, protein G-agarose; immunoblotting. In general terms: In western blotting, separated proteins are transferred to a membrane and probed.
Experiment [2] concerns the target GST fusion protein of full-length SNAP25 (synaptosome-associated protein of 25 kDa) (rat) (UniProt P60881). Put plainly: pull-down; 20 ug GST or GST fusion protein immobilised on glutathione beads, incubated with 500 ug total protein from SERT-transfected HEK-293 MSR cells in 5 mM CHAPS, 50 mM Tris-HCl pH 7.4, 150 mM NaCl; SERT detected by immunoblotting; only the target purified.

Experiment [3] concerns the target GST fusion protein of full-length VAMP2 (vesicle-associated membrane protein 2) (rat) (UniProt P63045). The experiment is described as above.
Experiment [4] has as its target serotonin transporter (SERT), endogenous in rat hippocampal crude synaptosomes (rat (endogenous in hippocampal synaptosomes)) (UniProt P31652). Put plainly: co-IP; rat hippocampal crude synaptosomes in PBS with 0.2% digitonin; precipitated with rabbit anti-N_SERT or control non-immune serum, 2 h at 4 C, protein G-agarose; VAMP2 detected by immunoblotting.
Experiment [5] deals with serotonin transporter (SERT), rat, in pcDNA3 (rat) (UniProt P31652). Put plainly: co-IP; as a2 but lysis in 5 mM CHAPS; data not shown.

These are yes or no findings as the source states them, for the method shown. In cells and extracts the contact can be indirect. Some entries that bind do so weakly or less than the wild type.

On to HA-VAMP1 (from UniProt Q63666 1-118), for which, in experiment [1], the binding result is “binds”.
Take “HA-VAMP3 (cellubrevin) (from UniProt P63025 1-103)”: the binding result in experiment [1] is “binds”.
On to “serotonin transporter (SERT), rat, in pcDNA3 (from UniProt P31652 1-630)”, for which the values for the binding entry in experiment [2] and in experiment [3] were “no binding” and “binds”, respectively.
Take “vesicle-associated membrane protein 2 (VAMP2), endogenous in rat hippocampal crude synaptosomes (from UniProt P63045 1-116)”: in experiment [4], the binding entry is on record as “binds”.
As for “vesicle-associated membrane protein 2 (VAMP2), in pcDNA3 (from UniProt P63045 1-116)”, the binding result in experiment [5] and in experiment [1] was “binds” each time.
